Laboratory results: the supplement of paper PMC12819154, “High-throughput peptide-centric local stability assay extends protein–ligand identification to membrane proteins, tissues and bacteria” (Nature Structural & Molecular Biology, 2025)
Some of the results follow. Most values lie at the level of the controls, where differences are scatter.

Protein sequences, listed by entry. Tags and fused reporters are not part of them. Lines headed by an entry give the natural chain unless they say otherwise; changes in a name come on top.
UniProt P10605: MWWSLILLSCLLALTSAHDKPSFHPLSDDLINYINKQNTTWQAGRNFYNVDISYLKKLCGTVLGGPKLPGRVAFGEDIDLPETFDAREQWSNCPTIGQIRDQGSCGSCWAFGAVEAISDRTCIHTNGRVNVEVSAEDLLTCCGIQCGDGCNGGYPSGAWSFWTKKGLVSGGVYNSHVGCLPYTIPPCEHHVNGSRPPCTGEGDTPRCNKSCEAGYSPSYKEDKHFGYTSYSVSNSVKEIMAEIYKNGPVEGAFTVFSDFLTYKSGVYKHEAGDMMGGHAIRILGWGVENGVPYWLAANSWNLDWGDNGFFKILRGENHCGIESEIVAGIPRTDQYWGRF
UniProt P06837, whole entry: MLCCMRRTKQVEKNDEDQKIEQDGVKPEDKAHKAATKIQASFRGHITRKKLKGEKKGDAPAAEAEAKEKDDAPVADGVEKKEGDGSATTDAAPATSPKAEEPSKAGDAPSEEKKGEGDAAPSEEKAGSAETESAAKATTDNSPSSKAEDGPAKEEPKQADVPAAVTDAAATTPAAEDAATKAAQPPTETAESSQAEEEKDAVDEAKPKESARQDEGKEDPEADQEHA
UniProt P03930: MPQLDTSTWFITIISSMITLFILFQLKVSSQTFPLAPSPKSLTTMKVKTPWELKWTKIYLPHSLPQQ
UniProt P15208, whole entry: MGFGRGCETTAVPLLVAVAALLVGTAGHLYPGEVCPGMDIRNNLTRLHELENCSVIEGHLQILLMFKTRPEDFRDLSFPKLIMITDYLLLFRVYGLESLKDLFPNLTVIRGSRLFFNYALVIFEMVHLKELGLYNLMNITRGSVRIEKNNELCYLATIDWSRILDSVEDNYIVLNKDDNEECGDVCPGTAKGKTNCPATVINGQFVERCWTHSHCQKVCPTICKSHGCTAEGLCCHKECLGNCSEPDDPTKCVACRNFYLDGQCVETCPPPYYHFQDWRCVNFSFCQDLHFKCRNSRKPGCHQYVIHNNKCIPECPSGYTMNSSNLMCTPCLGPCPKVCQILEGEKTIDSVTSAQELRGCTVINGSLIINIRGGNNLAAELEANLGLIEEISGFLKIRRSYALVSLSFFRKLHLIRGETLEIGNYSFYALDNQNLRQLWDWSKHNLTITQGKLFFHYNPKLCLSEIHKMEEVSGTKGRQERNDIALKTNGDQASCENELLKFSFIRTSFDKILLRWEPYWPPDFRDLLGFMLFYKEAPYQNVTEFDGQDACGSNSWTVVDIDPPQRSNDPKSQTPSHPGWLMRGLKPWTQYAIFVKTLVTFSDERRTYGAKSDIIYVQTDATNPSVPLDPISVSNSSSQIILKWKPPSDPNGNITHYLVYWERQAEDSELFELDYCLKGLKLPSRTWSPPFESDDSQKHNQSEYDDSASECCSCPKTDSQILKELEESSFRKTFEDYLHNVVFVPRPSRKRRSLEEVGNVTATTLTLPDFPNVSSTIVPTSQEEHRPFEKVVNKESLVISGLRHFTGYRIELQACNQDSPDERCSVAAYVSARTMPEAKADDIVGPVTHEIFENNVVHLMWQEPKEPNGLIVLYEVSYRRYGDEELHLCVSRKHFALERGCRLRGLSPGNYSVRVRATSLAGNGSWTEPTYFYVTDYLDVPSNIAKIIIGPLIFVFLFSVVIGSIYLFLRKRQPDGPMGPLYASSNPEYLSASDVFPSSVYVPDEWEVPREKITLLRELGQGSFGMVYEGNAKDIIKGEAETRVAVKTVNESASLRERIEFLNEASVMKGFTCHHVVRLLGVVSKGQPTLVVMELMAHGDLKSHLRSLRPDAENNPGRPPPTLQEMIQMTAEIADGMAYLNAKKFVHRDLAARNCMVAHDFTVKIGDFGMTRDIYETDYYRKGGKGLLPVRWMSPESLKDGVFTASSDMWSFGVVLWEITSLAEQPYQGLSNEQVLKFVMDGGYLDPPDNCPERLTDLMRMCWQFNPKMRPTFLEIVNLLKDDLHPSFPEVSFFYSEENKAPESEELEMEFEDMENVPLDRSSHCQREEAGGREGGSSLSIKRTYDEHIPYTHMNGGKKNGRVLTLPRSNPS
UniProt P20918, whole entry: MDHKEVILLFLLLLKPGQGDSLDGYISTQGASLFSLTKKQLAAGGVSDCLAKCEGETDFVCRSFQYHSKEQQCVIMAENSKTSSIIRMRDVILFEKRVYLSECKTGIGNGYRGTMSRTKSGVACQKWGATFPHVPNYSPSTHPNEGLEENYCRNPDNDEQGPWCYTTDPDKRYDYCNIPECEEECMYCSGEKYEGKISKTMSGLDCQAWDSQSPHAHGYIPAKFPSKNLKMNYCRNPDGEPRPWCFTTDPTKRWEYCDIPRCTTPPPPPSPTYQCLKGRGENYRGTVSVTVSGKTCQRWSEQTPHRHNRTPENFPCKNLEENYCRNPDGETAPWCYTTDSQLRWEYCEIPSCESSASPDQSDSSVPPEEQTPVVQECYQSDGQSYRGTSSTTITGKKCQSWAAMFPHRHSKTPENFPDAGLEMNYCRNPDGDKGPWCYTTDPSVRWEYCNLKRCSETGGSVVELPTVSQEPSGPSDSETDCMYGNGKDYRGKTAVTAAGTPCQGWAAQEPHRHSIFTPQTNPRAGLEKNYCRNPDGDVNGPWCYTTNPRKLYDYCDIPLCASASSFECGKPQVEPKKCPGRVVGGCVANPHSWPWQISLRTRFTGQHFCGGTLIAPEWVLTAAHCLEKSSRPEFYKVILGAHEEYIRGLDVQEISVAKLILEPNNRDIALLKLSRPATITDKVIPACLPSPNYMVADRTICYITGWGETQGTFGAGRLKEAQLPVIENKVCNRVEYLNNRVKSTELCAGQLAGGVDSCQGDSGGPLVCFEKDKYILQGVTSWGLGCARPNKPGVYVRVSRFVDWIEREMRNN
UniProt P20491: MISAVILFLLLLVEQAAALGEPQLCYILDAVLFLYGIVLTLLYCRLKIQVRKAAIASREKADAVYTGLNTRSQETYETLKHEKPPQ
UniProt P06797: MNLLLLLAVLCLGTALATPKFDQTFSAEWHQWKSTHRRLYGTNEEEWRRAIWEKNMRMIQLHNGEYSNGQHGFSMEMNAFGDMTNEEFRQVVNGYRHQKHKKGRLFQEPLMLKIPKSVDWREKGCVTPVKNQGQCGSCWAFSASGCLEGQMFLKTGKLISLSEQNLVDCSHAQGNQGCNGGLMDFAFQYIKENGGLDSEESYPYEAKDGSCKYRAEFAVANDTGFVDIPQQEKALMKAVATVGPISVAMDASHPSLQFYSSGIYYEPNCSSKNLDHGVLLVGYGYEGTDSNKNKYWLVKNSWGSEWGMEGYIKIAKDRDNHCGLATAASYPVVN
UniProt P09813: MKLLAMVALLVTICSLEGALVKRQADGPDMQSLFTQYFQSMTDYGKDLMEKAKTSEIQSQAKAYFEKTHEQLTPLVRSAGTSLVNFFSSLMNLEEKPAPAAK
UniProt P12382: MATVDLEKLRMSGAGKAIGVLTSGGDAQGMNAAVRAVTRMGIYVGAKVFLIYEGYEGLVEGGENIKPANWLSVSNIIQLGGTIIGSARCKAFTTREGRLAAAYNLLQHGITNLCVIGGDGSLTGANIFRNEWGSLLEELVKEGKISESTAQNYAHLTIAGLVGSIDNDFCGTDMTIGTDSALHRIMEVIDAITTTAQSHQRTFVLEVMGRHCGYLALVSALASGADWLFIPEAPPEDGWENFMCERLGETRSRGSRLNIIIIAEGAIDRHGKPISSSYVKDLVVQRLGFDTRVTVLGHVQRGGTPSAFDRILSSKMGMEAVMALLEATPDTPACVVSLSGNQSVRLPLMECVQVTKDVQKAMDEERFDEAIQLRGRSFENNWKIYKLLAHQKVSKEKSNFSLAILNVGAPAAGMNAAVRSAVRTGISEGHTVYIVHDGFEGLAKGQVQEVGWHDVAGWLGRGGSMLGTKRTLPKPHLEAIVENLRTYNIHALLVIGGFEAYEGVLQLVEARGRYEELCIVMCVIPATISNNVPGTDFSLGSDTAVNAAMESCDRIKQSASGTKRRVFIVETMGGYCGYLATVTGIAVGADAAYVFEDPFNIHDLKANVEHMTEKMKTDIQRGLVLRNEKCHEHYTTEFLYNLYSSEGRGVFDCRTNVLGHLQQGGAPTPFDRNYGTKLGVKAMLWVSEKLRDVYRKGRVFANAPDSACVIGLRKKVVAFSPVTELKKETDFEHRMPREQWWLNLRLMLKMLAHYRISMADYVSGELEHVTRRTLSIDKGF
UniProt P08113, whole entry: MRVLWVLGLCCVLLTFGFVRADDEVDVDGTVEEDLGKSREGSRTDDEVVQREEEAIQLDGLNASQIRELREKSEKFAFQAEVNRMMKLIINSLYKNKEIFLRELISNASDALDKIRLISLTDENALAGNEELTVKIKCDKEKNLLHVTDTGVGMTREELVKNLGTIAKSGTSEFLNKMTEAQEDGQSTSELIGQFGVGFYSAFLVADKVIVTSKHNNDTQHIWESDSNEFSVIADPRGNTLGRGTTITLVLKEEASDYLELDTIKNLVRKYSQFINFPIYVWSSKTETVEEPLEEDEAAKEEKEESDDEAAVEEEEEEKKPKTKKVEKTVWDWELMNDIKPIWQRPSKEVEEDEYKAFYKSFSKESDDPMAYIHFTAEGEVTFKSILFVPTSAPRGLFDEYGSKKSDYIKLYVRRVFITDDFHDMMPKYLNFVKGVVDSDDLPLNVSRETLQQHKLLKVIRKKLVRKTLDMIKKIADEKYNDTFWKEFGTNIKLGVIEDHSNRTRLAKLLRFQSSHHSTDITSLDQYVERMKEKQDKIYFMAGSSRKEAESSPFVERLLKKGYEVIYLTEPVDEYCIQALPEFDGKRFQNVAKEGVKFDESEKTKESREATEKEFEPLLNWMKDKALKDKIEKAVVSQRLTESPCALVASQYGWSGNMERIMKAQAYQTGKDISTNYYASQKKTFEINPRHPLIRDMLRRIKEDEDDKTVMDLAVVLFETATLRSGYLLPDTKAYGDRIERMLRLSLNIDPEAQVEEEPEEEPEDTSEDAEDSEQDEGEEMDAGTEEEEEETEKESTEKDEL
UniProt P28474: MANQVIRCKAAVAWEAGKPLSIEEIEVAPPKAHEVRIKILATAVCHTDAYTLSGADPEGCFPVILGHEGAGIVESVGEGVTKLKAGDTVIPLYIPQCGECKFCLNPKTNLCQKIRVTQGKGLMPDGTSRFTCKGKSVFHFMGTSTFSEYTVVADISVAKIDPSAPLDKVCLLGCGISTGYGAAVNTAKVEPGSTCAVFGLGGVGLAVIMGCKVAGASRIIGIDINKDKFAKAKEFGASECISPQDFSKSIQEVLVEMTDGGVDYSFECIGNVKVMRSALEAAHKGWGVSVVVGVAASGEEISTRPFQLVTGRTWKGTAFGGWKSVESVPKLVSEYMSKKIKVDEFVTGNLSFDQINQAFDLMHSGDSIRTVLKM
UniProt P06800: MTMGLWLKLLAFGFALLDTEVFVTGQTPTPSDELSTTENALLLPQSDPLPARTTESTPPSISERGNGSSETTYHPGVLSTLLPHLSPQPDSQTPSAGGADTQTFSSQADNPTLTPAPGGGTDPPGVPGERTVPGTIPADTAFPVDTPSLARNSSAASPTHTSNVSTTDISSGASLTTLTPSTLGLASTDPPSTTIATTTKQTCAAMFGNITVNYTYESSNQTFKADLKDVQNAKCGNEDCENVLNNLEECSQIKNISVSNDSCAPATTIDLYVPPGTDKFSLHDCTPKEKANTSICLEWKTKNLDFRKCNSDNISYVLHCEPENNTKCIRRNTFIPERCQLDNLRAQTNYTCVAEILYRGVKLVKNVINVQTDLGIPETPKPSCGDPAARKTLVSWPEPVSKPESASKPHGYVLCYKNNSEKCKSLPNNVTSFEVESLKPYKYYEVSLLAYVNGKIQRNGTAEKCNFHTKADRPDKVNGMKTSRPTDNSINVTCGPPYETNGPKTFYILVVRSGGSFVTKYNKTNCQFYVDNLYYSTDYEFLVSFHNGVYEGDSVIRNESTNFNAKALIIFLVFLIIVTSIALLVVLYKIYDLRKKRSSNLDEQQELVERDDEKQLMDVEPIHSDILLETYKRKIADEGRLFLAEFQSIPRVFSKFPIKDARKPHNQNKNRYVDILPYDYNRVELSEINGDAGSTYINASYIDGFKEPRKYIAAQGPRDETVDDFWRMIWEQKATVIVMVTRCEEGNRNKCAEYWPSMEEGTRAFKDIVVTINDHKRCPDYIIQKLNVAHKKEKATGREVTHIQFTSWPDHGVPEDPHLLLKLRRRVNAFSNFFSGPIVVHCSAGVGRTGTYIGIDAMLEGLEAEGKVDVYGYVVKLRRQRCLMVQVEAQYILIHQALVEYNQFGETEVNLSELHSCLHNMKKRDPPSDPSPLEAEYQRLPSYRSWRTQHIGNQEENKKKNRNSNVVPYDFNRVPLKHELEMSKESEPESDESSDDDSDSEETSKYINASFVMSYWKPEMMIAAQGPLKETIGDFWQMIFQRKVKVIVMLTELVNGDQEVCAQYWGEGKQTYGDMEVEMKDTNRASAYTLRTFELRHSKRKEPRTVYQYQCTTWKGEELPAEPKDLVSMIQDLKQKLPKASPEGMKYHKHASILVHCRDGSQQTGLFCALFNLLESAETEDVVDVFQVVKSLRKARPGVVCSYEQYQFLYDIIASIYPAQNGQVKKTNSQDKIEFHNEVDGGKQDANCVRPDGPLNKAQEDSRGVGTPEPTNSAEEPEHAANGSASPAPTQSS

Each target was assayed with CN[C@@H]1C[C@H]2O[C@@](C)([C@@H]1OC)n1c3ccccc3c3c4c(c5c6ccccc6n2c5c31)C(=O)NC4 [staurosporine] (assay: log2 fold change of pooled soluble protein (PISA), ligand vs vehicle (log2 ratio); higher = more thermally stabilized). Conditions: ligand concentration: 20 uM; assay format: PISA pool 52.9/55.5/58.6 C.

Target | log2 fold change of pooled soluble protein
UniProt P10605 | 0.123
UniProt P14094 | 0.088
UniProt P16882 | 0.0552
UniProt P04104 | -0.527
UniProt P18654 | 0.706
UniProt P10493 | -0.109
UniProt P06837 | 0.0563
UniProt P21460 | 0.236
UniProt P22682 | 0.349
UniProt P22315 | 0.229
UniProt P04939 | 0.0255
UniProt P15864 | -0.143
UniProt P03930 | -0.0222
P10853;P10854;Q64475;Q64478;Q64525;Q6ZWY9;Q8CGP1;Q8CGP2 | -0.0227
UniProt P15208 | 0.0944
UniProt P20918 | 0.00616
UniProt P19783 | -0.00832
UniProt P23492 | -0.0499
UniProt P20491 | -0.0119

8 successive entries already listed:
Target | log2 fold change of pooled soluble protein
UniProt P18654 | 0.706
UniProt P10493 | -0.109
UniProt P06837 | 0.0563
UniProt P21460 | 0.236
UniProt P22682 | 0.349
UniProt P22315 | 0.229
UniProt P04939 | 0.0255
UniProt P15864 | -0.143

Next results.

Target | log2 fold change of pooled soluble protein
UniProt P26231 | -0.0517
UniProt P05555 | 0.0452
UniProt P26039 | -0.0218
UniProt P02088 | 0.145
UniProt P06797 | 0.351
UniProt P09813 | -0.031
UniProt P21126 | 0.194
UniProt P06684 | 0.000162
UniProt P23780 | 0.0511
UniProt P01872 | -0.179
UniProt P12382 | 0.0387
UniProt P11103 | -0.275
UniProt P08113 | 0.0318
UniProt P25322 | -0.0992
UniProt P05208 | -0.282
UniProt P28474 | -0.0371
UniProt P06800 | -0.0447
UniProt P14115 | -0.178
